The values below come from PMC7819943, “Rice protein-binding microarrays: a tool to detect cis-acting elements near promoter regions in rice”.

Amino acid sequences for entries named in this document (tags omitted).
UniProt Q0JBA9, entry or part of it: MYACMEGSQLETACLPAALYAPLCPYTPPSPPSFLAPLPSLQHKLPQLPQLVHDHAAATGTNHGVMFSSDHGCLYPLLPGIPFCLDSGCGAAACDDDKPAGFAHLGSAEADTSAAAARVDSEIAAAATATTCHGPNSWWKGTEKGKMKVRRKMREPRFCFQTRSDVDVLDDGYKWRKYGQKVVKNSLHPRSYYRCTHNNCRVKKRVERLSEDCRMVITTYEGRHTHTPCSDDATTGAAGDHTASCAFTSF

The list shows a part of the results.

In the assay the target is OsWRKY34 (Oryza sativa, UniProt Q0JBA9 1-250). The assay is described as follows: protein-binding microarray (RPBM); PBS, 2% BSA, 51.3 ng/ul salmon testes DNA, 50 uM zinc acetate, 200 nM TF, 25 C, 1 h; high values mean tight binding. The following applies: protein: recombinant; tags: N-terminal polyhistidine and DsRed monomer fusion (pET32a); label: CyDye5-dUTP incorporated in the synthesized complementary strand; 3' TTTTT single-stranded linker to array surface; dsDNA, one strand shown. The procedure, abridged: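 Transcription factors, each fused N-terminally to a polyhistidine tag and DsRed, were expressed in E. coli BL21-CodonPlus and purified on Ni–NTA. A custom Agilent array was made double-stranded by primer extension with Cy5-dUTP and blocked with 2% BSA. It was incubated with 200 nM protein in PBS, 2% BSA, salmon testes DNA and 50 µM zinc acetate at 25 °C for 1 h, then washed. The binding signal is per-feature fluorescence intensity (arbitrary units) read on an Axon 4000B scanner.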
In the case of “GATTTACCATCGCTGTCCGGTTAGCCTCCGTTAACACTGTCGGAGTCACCTAGTGCAG”, the binding signal is 11100 fluorescence intensity (a.u.).

“TTTAGGCATGCATCAAGTTGGATTCTATGTGTTTTTTTCTCGGAGTCACCTAGTGCAG”: the binding signal was 8990 fluorescence intensity (a.u.).

With “TTCCTCGCGCTCCCACGCCACGCAGCAGCCGCAGATCTCCCGGAGTCACCTAGTGCAG”, the binding signal is 8370 fluorescence intensity (a.u.).

As to “AATCTCCATCGTTTCTTCCTTACTCAGGTTTCTATTCCCTCGGAGTCACCTAGTGCAG”, the binding signal is 13500 fluorescence intensity (a.u.).

As for “ACGCTCTTCCTCGCGCGCGGCGCCGTCATCCGCGCCACCCCGGAGTCACCTAGTGCAG”, the binding signal was 8500 fluorescence intensity (a.u.).

With “AAACTTCGTACACCACGCATTGCCGCCACCGCCGCGCTCGCGGAGTCACCTAGTGCAG”, the binding signal is 8450 fluorescence intensity (a.u.).

“CTGTTAATTAATCGTCTAATCATAAGTTCAGTGCTCGTATCGGAGTCACCTAGTGCAG”: the binding signal is 9810 fluorescence intensity (a.u.).

With “CCATCACTCTCTCTCTCTCGCCTGCTCGCGGTTGCCTGTGCGGAGTCACCTAGTGCAG”, the binding signal was 8520 fluorescence intensity (a.u.).

Consider “AACTTTTCCATCACATCAAAACTTTTCTACACACATAAACCGGAGTCACCTAGTGCAG”, for which the binding signal was 8910 fluorescence intensity (a.u.).

For the sequence “GGAAGTAGAAGCGATAGGGTATAGTTGACCAATTTCGGCTCGGAGTCACCTAGTGCAG”, the binding signal is 8980 fluorescence intensity (a.u.).

In the case of “TATCTTTTTCTTTTTGGAGGTTTCGTTTTCTCTTGGTCAACGGAGTCACCTAGTGCAG”, the binding signal is 10400 fluorescence intensity (a.u.).

Consider “GCCCATTCACTTCCTCGCTTTTTTACCACATAAAAAATCTCGGAGTCACCTAGTGCAG”, for which the binding signal is 9780 fluorescence intensity (a.u.).

Consider “ACACTCCTGCTGTCACTCGTTGCATCTCACCTAGAGACCACGGAGTCACCTAGTGCAG”, for which the binding signal was 8300 fluorescence intensity (a.u.).

With “GGTGGAGAGGAATAGCGCCGTATACCTGTGTCTCGTCGTGCGGAGTCACCTAGTGCAG”, the binding signal is 9660 fluorescence intensity (a.u.).

In the case of “ATCTGAATTGTATTCCACGGTGCTATTAGGCCTCACGAAACGGAGTCACCTAGTGCAG”, the binding signal was 8060 fluorescence intensity (a.u.).

For “TTCACACATATTTATAAGCGCCTGCGTTTCACTGTGTTTTCGGAGTCACCTAGTGCAG”, the binding signal was 9340 fluorescence intensity (a.u.).

Regarding “AGTCCATTGGAGAATCGATCGGTTTGTTGCACACTTATTTCGGAGTCACCTAGTGCAG”, the binding signal is 9710 fluorescence intensity (a.u.).

On to “TTCTCTCTTGGTCTTATCCTCCTCCTTGTTGTTGCGGGAACGGAGTCACCTAGTGCAG”, for which the binding signal was 8410 fluorescence intensity (a.u.).

“TGATTTCATCCCACCATCGATACTTTGTGCTTAGTTTTCTCGGAGTCACCTAGTGCAG”: the binding signal is 12800 fluorescence intensity (a.u.).

For “TCCTCACAAATCTCGTGCGCGCCACCGTCATCTCCGGCGACGGAGTCACCTAGTGCAG”, the binding signal was 10300 fluorescence intensity (a.u.).

With “CGATCCTCTTTCGTGTTGCCTGCCGCCTGCCGCCTGCCGCCGGAGTCACCTAGTGCAG”, the binding signal was 8950 fluorescence intensity (a.u.).

As for “CTCATCACCCACAGCCGCACGCCGCCGTCCACCGGTCGCCCGGAGTCACCTAGTGCAG”, the binding signal was 8192 fluorescence intensity (a.u.).

Take “TGTTGACTTTTTAGTACATATTTAACCATTTGTCTTATTACGGAGTCACCTAGTGCAG”: the binding signal is 14900 fluorescence intensity (a.u.).

With “AGGCCTTCTGTCCCGTTTGTTGAACTCATTGTCGACATTTCGGAGTCACCTAGTGCAG”, the binding signal was 8200 fluorescence intensity (a.u.).

As to “CGCGCTGATTTGACTTCCGGTTTGAAATACCACCACACCACGGAGTCACCTAGTGCAG”, the binding signal is 8280 fluorescence intensity (a.u.).

In the case of “CTAAACATATAGCAAACCAGATATGCTAACTTTTGCTCAGCGGAGTCACCTAGTGCAG”, the binding signal is 8240 fluorescence intensity (a.u.).

Regarding “GCCTTTATCTTTCGTATGTTGCTTTTAAAACCATTCACCACGGAGTCACCTAGTGCAG”, the binding signal is 11800 fluorescence intensity (a.u.).

With “CCTGGAACTGATATCCTGAACTTGTTATTTCTTTTAACTTCGGAGTCACCTAGTGCAG”, the binding signal is 9180 fluorescence intensity (a.u.).

Turning to “CCCGTCCCGCTGGTCTCCATCAATTCCTCCTTAACCCAACCGGAGTCACCTAGTGCAG”, the binding signal was 8230 fluorescence intensity (a.u.).

Take “TGGCGCGCCGCGCGTCCACCAGTCCACCGCTCCGCCACTCCGGAGTCACCTAGTGCAG”: the binding signal is 10600 fluorescence intensity (a.u.).

In the case of “CTTTCCGCGGTCCTTTTGCTCGGTTCAGCACGCACGCGGGCGGAGTCACCTAGTGCAG”, the binding signal is 9440 fluorescence intensity (a.u.).

“GAACCATTATAATCCTTGTCTTTTGTTTGTTTTGATGTCGCGGAGTCACCTAGTGCAG”: the binding signal is 8970 fluorescence intensity (a.u.).

As for “TCCCCACGCCGCGCCGCCCGCCTGACCTCAGCCACGCACACGGAGTCACCTAGTGCAG”, the binding signal was 10500 fluorescence intensity (a.u.).

As for “CTGTCTACTCGCACTCGCCGCCGCTGCCGTTCCCCATCCCCGGAGTCACCTAGTGCAG”, the binding signal is 9840 fluorescence intensity (a.u.).

Regarding “AAGGACAACATCATCATCCATGACCATGCTGACAGCGCGCCGGAGTCACCTAGTGCAG”, the binding signal was 8380 fluorescence intensity (a.u.).

In the case of “GAATTCTCAAAGGCCTACAAGATTTTCTCTTTCTTTTTCCCGGAGTCACCTAGTGCAG”, the binding signal was 8920 fluorescence intensity (a.u.).

In the case of “TCGTCGTTCTTGTGCTTGTTTTCCGTCGAATCCTCGTGCACGGAGTCACCTAGTGCAG”, the binding signal was 9310 fluorescence intensity (a.u.).

“TACCTCGCATGCCACGCAGTCCCACGTACGCCTCTCGTGTCGGAGTCACCTAGTGCAG”: the binding signal is 9040 fluorescence intensity (a.u.).

In the case of “TTTCGGTTTTGCTACTTCACATGCGCATATTTTTGGAGGGCGGAGTCACCTAGTGCAG”, the binding signal is 9330 fluorescence intensity (a.u.).

Turning to “ACCAACTCACAAATTCCTTCCGCTACTCATCTACTCTACTCGGAGTCACCTAGTGCAG”, the binding signal was 9800 fluorescence intensity (a.u.).

Consider “CCCCGTCGTTGTCGCCACCTACTTCTACCTGCGCGGATTCCGGAGTCACCTAGTGCAG”, for which the binding signal is 10800 fluorescence intensity (a.u.).

“ATCTGCTTTTCTGTCATGTAGTCTTGCAAGAACTTCCGAACGGAGTCACCTAGTGCAG”: the binding signal was 11300 fluorescence intensity (a.u.).
